doi:10.1101/2020.03.04.976555
Results are given in words; binding and its absence hold for the method and conditions named.

Molecular target: STK32A kinase domain (residues P9-D390), unphosphorylated (human) (UniProt Q8WU08)
Assay: SEC

B1: STK32A kinase domain (residues P9-D390), unphosphorylated (enzyme, UniProt Q8WU08-1 9-390)
chain: PPVFDENEDVNFDHFEILRAIGKGSFGKVCIVQKNDTKKMYAMKYMNKQKCVERNEVRNVFKELQIMQGLEHPFLVNLWYSFQDEEDMFMVVDLLLGGDLRYHLQQNVHFKEETVKLFICELVMALDYLQNQRIIHRDMKPDNILLDEHGHVHITDFNIAAMLPRETQITTMAGTKPYMAPEMFSSRKGAGYSFAVDWWSLGVTAYELLRGRRPYHIRSSTSSKEIVHTFETTVVTYPSAWSQEMVSLLKKLLEPNPDQRFSQLSDVQNFPYMNDINWDAVFQKRLIPGFIPNKGRLNCDPTFELEEMILESKPLHKKKKRLAKKEKDMRKCDSSQTCLLQEHLDSVQKEFIIFNREKVNRDFNKRQPNLALEQTKDPQGED
In the case of B1, the binding is reported as “no binding”.
